The chains behind the UniProt entries cited, without tags or fusion partners. Where a name states a change or a piece, a line headed by the entry shows the natural chain unless it says otherwise. Residues count along the entry.
UniProt Q8TBR7: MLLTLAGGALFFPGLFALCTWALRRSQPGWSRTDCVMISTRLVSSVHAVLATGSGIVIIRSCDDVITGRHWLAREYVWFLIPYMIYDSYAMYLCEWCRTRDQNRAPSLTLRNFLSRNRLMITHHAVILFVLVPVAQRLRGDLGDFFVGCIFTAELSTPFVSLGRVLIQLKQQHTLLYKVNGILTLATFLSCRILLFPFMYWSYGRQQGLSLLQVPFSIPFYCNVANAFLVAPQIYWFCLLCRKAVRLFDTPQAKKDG
UniProt Q9UKI8, 67-86: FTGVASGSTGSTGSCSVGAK
UniProt O75663: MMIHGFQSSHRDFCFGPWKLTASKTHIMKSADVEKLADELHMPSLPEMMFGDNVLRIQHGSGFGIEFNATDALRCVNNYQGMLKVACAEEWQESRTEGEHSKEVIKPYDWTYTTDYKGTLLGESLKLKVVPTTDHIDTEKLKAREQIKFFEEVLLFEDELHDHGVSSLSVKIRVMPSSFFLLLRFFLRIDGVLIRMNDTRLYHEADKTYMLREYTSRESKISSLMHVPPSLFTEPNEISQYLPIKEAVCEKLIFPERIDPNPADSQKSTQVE
UniProt Q12888: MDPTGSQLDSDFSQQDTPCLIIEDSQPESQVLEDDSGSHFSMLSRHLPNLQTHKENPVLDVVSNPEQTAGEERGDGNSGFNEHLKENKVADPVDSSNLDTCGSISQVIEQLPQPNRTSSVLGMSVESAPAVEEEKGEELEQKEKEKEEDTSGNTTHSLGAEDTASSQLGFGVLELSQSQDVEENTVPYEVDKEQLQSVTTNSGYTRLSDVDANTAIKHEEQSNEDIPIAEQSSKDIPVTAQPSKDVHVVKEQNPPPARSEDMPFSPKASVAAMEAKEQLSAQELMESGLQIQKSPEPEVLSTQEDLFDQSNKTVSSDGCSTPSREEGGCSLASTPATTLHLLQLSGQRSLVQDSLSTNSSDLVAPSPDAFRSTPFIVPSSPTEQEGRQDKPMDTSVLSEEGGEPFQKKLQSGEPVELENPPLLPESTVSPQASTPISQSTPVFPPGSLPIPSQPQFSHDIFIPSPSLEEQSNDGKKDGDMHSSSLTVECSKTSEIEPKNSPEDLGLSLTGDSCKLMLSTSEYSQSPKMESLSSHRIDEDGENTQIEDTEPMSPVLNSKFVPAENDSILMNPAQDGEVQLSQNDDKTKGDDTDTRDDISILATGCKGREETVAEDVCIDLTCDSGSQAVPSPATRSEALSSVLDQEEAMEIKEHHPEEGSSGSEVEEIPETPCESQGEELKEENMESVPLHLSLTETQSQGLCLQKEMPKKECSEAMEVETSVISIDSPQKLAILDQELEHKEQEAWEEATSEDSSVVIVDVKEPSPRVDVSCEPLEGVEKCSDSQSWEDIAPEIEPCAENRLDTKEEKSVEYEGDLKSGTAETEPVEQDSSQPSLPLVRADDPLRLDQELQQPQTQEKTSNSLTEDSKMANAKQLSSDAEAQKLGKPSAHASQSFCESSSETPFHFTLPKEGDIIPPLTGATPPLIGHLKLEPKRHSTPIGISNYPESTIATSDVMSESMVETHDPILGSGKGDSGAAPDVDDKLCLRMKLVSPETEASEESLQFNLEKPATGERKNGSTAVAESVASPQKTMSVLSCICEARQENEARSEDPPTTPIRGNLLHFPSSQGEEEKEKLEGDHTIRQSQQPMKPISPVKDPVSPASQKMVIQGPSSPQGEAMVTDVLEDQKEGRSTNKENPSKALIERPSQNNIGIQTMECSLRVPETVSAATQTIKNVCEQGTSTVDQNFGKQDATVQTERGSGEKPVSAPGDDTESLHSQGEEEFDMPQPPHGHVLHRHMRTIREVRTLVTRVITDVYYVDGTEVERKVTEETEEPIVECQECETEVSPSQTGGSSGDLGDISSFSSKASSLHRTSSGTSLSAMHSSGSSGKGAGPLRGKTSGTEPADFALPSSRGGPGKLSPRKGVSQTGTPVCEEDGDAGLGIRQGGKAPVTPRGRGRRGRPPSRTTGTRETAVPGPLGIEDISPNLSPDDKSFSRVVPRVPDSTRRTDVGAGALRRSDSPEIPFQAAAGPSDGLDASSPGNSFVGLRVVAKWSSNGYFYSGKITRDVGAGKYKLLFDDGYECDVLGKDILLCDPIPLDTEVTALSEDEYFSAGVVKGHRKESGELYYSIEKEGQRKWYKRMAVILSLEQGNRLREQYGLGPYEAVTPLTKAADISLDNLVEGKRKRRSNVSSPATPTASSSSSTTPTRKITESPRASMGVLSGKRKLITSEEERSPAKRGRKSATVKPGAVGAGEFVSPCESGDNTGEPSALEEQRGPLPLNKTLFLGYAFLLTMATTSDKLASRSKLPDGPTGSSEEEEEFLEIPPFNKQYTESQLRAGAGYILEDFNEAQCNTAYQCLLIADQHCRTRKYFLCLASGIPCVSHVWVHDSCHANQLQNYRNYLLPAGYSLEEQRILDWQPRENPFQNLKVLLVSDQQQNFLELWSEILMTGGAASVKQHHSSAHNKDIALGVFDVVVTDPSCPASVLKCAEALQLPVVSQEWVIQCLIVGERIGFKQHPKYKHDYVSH
UniProt Q9ULW0, 84-111: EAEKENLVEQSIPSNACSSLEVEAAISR
UniProt Q8WV44: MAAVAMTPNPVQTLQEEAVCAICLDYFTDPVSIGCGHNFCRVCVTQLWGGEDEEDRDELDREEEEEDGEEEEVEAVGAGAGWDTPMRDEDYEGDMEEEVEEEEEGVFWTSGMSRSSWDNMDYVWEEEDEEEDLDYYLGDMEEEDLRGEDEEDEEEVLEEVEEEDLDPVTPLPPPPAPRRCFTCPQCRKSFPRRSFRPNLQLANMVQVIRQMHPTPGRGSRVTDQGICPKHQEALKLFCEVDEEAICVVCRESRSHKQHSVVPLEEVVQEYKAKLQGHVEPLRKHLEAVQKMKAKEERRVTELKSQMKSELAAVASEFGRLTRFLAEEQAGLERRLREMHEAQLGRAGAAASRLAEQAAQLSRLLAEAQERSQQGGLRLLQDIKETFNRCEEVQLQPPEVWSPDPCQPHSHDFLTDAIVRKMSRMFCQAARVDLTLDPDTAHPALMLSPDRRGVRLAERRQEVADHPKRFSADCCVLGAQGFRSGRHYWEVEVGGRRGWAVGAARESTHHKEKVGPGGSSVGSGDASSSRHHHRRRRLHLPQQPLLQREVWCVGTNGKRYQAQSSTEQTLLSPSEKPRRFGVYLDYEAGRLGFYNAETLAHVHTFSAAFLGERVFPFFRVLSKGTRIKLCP
UniProt Q9H1E5, 310-338: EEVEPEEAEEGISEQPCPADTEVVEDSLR
UniProt O94826, whole entry, looked up: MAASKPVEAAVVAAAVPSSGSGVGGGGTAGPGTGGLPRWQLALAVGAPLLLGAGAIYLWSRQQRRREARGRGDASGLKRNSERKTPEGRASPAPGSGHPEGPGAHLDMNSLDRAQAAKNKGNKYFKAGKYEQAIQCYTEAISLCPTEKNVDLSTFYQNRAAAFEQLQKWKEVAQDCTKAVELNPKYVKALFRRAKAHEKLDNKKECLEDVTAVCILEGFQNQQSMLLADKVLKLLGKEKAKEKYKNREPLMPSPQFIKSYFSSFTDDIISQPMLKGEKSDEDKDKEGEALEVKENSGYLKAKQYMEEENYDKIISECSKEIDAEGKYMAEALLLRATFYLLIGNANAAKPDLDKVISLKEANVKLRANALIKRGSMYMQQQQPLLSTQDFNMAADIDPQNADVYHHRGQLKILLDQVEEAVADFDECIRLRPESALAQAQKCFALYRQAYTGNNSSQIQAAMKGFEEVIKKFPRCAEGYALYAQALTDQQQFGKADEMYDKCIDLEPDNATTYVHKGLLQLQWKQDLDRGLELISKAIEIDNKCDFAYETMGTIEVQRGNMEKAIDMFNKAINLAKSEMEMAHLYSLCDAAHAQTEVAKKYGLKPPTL
UniProt Q8NE00: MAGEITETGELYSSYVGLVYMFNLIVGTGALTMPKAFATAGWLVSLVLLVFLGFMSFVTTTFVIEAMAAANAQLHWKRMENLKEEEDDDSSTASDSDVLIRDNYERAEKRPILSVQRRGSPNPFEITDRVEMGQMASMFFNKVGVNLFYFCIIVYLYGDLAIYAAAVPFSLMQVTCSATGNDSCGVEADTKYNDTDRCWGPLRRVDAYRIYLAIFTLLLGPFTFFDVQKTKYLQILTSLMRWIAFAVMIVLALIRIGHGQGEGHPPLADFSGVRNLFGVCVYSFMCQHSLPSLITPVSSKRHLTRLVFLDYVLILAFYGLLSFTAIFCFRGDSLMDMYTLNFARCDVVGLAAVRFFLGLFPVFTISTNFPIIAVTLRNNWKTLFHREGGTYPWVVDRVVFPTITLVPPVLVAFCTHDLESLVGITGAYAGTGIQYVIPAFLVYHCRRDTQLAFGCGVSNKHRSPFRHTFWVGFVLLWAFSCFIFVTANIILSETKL
UniProt O15164, 872-891: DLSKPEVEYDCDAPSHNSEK
UniProt Q8NDV7: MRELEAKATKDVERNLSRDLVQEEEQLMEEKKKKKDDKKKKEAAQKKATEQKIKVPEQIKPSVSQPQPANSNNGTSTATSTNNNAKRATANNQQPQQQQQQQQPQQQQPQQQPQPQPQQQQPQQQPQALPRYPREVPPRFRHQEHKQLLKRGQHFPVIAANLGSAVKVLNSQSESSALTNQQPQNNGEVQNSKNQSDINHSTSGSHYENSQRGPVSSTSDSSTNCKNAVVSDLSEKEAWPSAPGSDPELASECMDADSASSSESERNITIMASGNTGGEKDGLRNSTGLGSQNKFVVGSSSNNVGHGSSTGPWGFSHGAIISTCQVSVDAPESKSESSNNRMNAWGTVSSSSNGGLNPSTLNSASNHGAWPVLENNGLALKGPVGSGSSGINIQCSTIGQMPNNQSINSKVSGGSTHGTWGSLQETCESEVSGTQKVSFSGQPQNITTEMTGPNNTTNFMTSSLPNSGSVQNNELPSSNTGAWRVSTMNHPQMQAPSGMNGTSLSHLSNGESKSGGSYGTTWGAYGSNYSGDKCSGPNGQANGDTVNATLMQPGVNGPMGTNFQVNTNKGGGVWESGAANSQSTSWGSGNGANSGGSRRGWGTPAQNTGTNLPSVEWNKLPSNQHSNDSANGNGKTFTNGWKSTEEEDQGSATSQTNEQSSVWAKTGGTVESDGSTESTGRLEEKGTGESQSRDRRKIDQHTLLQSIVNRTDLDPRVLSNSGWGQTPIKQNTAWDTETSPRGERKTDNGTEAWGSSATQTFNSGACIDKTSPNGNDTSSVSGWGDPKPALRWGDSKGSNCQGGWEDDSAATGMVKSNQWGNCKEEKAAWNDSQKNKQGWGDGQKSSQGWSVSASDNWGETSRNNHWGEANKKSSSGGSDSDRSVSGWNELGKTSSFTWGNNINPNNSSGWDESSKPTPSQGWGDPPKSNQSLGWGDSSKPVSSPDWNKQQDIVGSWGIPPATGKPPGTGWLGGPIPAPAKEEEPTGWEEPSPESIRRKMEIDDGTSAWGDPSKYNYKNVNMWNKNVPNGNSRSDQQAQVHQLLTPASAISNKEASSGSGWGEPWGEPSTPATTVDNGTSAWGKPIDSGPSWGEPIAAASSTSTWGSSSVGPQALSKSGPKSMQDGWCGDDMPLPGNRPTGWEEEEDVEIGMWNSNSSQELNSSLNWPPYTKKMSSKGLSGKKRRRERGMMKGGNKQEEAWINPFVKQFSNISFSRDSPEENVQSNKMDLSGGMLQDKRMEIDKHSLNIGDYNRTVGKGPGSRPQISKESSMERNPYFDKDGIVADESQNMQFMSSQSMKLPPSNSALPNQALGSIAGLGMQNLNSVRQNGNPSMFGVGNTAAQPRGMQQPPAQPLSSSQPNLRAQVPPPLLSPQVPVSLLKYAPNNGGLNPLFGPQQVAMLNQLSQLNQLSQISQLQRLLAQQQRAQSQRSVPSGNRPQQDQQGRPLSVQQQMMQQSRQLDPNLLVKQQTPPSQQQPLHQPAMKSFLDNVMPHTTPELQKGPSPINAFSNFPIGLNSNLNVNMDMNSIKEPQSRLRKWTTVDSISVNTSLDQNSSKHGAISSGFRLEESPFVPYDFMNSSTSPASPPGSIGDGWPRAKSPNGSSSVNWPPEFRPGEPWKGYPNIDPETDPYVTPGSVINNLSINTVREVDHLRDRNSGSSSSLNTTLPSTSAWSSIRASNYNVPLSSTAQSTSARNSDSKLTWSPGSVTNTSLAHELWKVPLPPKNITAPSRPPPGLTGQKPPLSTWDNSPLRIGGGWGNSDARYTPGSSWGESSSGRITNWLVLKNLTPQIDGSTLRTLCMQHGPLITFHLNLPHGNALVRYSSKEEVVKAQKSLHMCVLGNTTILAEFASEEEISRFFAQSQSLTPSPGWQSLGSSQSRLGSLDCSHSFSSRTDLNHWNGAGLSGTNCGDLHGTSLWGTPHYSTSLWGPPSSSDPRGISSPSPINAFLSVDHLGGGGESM
UniProt Q9Y490, 1375-1401: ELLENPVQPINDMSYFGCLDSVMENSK
UniProt Q8IY95: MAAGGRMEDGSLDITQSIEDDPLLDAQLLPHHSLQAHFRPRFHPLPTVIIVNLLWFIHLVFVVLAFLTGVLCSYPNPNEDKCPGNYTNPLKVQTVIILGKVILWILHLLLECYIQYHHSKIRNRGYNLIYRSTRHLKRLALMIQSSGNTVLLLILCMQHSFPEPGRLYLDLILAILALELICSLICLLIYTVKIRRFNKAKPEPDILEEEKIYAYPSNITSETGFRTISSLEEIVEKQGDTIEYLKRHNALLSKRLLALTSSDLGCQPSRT

The other results are listed elsewhere or left out. The data scatter; read single values as rough.
Each target was assayed with ClCC(=O)N[C@@H]1CCCc2ccccc12 (assay: log2 mean competition ratio of IA-DTB cysteine labelling (DMSO/compound) (log2 ratio); higher = stronger cysteine engagement by compound). Conditions: 50 µM; treatment time: 4 h; cell line lysate: HEK293T.
Experimental: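 IA-DTB competitive cysteine chemoproteomics in HEK293T RIPA lysate. Lysates were treated with compound 29 or 30 at 50 or 200 µM for 4 h, then IA-DTB (500 µM, 1 h), trypsin-digested, NeutrAvidin-enriched and analysed by diaPASEF. Competition ratio = intensity DMSO / intensity compound (n=4 treated, n=64 DMSO); binding: mean log2 CR ≥ 1 and p ≤ 0.05 plus QC filters. Target is the cysteine site.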
In the case of TLCD3A C62 (UniProt Q8TBR7), the “log2 mean competition ratio” value is reported as -0.131.
With TLK1 C81 (UniProt Q9UKI8) the “log2 mean competition ratio” value was -0.0308.
In the case of TNKS C190 (UniProt O95271), the “log2 mean competition ratio” value is reported as 0.114.
For TMEM87A C89 (UniProt Q8NBN3), the “log2 mean competition ratio” value was -0.0375.
With TIPRL C87 (UniProt O75663) the “log2 mean competition ratio” value was -0.00809.
With TP53BP1 C319 (UniProt Q12888) the “log2 mean competition ratio” value was 0.0559.
TPX2 C100 (UniProt Q9ULW0) was tested, and the “log2 mean competition ratio” value was 0.298.
For TRIM41 C551 (UniProt Q8WV44), the “log2 mean competition ratio” value was -0.285.
With TRIO C2136 (UniProt O75962) the “log2 mean competition ratio” value was 0.0117.
For TM9SF2 C250 (UniProt Q99805), the “log2 mean competition ratio” value was 0.0849.
With TLN2 C1954 (UniProt Q9Y4G6) the “log2 mean competition ratio” value was 0.114.
In the case of TMX4 C326 (UniProt Q9H1E5), the “log2 mean competition ratio” value is reported as -0.211.
In the case of TOMM70 C176 (UniProt O94826), the “log2 mean competition ratio” value is reported as -0.0558.
In the case of TMEM209 C422 (UniProt Q96SK2), the “log2 mean competition ratio” value is reported as 0.214.
TP53 C124 was tested, and the “log2 mean competition ratio” value was 0.0412.
In the case of TPR C1127 (UniProt P12270), the “log2 mean competition ratio” value is reported as -0.118.
TOP1MT C222 was tested, and the “log2 mean competition ratio” value was -0.186.
For TMEM104 C455 (UniProt Q8NE00), the “log2 mean competition ratio” value was 0.19.
TIMELESS C700 (UniProt Q9UNS1) was tested, and the “log2 mean competition ratio” value was 0.274.
For TONSL C124 (UniProt Q96HA7), the “log2 mean competition ratio” value was -0.0877.
TRIM24 C882 (UniProt O15164) was tested, and the “log2 mean competition ratio” value was -0.259.
With TRIM32 C618 (UniProt Q13049) the “log2 mean competition ratio” value was 0.114.
For TNRC6A C225 (UniProt Q8NDV7), the “log2 mean competition ratio” value was -0.129.
TLN1 C1392 (UniProt Q9Y490) was tested, and the “log2 mean competition ratio” value was 0.0908.
For TK1 C79, the “log2 mean competition ratio” value was -0.0384.
TMA16 C75 (UniProt Q96EY4) was tested, and the “log2 mean competition ratio” value was -0.0611.
For TMCO4 C537 (UniProt Q5TGY1), the “log2 mean competition ratio” value was 0.464.
TMEM192 C266 (UniProt Q8IY95) was tested, and the “log2 mean competition ratio” value was 0.579.

Reference: the supplement of paper PMC11732987, “Enantioselective OTUD7B fragment discovery through chemoproteomics screening and high-throughput optimisation” (Communications Chemistry, 2025)
